Sequences of proteins named here, by UniProt entry; tags and fusion partners are left off. A change or cut given only in a name is not applied to a line headed by its entry.
UniProt O60271: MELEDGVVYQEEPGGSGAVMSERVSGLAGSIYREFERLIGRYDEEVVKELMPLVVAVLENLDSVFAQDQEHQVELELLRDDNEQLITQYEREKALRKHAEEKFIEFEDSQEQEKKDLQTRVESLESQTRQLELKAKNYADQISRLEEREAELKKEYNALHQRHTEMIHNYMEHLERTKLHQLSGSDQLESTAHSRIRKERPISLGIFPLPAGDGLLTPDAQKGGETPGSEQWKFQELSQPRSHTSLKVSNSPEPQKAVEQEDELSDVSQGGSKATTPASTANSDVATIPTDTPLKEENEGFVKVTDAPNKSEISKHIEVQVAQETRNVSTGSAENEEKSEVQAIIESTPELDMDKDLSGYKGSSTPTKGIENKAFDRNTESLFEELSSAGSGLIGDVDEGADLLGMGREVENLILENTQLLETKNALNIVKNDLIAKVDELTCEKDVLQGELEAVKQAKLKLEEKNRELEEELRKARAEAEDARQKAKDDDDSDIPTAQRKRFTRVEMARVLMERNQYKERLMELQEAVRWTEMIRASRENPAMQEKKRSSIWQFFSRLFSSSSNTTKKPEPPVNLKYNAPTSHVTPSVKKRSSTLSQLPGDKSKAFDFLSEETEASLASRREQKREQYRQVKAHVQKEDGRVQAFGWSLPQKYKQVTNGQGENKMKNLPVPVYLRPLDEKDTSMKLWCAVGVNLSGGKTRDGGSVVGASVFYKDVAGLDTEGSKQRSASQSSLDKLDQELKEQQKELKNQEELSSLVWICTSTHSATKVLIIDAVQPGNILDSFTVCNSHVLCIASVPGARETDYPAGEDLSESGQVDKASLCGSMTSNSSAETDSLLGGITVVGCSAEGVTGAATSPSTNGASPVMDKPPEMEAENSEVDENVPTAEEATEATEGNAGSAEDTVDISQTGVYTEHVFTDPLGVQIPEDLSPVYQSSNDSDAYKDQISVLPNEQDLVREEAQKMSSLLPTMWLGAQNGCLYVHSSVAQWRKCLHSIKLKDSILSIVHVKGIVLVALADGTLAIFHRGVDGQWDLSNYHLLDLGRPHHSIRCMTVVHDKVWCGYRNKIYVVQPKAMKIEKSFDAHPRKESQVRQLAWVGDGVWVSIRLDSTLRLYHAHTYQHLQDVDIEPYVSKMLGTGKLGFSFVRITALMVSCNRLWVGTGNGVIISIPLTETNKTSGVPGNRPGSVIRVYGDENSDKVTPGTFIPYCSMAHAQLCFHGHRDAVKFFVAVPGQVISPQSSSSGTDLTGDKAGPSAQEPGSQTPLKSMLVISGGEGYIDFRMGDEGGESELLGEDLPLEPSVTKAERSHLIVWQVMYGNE
UniProt Q96SI9: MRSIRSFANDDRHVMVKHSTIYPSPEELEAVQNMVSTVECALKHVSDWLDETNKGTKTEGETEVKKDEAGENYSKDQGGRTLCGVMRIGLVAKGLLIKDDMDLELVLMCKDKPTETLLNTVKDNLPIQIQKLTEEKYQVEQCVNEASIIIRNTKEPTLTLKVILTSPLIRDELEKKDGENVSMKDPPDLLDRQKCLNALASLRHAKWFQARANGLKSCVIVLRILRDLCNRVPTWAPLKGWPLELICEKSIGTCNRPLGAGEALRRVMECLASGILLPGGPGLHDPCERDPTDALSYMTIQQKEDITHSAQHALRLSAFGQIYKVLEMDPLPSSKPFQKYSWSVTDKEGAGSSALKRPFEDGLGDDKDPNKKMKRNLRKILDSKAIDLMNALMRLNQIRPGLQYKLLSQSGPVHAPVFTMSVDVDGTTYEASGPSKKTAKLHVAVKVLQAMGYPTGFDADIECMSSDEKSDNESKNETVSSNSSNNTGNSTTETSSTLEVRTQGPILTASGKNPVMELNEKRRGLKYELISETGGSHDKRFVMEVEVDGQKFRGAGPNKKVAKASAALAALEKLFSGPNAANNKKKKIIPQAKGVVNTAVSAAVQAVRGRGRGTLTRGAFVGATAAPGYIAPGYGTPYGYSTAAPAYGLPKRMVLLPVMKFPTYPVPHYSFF
UniProt O60504: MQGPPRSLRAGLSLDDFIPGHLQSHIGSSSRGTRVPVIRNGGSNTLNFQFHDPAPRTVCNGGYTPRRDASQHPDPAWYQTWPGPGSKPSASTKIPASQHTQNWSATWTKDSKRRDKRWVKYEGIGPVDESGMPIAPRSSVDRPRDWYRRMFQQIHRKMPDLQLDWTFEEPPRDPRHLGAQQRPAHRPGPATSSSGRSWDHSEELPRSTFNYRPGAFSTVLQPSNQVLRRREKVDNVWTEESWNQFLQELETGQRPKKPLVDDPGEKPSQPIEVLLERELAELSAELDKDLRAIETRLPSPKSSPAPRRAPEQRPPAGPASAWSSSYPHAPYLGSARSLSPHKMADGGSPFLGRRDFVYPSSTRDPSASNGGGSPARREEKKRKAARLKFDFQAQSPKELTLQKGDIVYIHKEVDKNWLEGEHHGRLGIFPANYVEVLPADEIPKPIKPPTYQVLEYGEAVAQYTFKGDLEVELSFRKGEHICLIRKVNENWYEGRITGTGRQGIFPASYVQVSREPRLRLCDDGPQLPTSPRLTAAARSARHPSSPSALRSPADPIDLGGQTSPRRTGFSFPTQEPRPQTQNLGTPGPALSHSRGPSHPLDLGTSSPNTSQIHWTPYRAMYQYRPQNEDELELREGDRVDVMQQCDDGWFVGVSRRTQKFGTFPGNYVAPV
UniProt A0MZ66, whole entry: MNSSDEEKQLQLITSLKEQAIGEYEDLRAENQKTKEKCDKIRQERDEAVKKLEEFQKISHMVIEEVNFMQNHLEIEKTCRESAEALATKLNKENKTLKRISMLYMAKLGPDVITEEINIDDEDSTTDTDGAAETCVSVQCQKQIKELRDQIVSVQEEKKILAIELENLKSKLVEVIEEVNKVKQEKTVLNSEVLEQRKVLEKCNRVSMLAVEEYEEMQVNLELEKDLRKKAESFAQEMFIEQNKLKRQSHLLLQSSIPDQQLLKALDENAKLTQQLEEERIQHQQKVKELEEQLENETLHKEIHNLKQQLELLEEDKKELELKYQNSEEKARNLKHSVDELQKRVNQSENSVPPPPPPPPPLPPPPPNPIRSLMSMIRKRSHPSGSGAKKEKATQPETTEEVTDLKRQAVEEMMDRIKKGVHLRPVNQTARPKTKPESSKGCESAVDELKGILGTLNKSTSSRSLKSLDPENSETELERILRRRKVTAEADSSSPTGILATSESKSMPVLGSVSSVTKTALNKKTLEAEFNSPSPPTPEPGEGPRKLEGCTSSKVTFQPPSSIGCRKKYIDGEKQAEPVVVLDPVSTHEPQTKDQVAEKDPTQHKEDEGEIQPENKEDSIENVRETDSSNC
UniProt Q13242, whole entry: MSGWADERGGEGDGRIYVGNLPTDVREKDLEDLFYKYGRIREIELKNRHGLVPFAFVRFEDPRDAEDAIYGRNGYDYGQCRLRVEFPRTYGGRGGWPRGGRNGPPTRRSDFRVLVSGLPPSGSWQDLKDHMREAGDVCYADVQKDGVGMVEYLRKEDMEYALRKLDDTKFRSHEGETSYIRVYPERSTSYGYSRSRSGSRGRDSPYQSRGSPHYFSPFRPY
UniProt Q99523, whole entry: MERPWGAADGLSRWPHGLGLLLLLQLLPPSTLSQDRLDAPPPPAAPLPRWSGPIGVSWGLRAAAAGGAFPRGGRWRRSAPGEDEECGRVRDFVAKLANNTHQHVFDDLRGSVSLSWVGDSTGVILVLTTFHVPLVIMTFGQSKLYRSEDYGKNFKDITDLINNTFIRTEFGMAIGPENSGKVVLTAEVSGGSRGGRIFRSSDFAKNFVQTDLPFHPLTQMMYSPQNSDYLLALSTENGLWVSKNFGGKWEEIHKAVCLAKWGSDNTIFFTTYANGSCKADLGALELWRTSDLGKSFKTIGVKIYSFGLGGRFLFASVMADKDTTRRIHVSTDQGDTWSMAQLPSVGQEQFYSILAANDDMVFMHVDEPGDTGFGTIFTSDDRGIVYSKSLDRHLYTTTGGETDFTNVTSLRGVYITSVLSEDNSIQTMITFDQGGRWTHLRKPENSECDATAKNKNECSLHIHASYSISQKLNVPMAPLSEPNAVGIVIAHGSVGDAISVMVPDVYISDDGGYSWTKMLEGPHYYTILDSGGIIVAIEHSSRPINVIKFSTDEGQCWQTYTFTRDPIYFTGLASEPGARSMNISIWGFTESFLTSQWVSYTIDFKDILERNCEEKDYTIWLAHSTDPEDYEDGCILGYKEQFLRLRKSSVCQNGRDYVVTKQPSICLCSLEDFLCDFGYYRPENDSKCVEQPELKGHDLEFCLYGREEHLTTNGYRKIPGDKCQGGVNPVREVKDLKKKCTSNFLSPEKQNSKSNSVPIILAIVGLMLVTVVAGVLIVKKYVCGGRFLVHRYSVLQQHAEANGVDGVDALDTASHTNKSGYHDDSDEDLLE
UniProt Q86WV1: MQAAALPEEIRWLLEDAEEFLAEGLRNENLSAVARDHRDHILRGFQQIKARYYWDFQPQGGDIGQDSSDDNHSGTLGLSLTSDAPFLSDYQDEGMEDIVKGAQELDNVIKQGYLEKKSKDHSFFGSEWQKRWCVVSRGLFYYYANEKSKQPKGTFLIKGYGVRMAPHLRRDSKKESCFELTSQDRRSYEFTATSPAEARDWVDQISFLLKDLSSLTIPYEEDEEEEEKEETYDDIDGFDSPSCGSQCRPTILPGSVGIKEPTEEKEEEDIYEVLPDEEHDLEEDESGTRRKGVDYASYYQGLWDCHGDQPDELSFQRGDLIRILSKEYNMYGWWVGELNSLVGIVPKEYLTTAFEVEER
UniProt P16150: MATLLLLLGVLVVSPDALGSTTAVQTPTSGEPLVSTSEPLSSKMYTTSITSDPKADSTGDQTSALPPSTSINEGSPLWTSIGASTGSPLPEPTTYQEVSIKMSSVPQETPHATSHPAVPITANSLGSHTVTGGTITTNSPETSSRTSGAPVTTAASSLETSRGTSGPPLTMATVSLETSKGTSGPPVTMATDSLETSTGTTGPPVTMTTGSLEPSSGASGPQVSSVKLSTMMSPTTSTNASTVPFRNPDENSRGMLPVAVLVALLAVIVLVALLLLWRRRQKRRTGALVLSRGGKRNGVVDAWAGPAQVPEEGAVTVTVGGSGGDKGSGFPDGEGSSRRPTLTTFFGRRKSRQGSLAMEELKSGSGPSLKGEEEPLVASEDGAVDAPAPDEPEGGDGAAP
UniProt P35270: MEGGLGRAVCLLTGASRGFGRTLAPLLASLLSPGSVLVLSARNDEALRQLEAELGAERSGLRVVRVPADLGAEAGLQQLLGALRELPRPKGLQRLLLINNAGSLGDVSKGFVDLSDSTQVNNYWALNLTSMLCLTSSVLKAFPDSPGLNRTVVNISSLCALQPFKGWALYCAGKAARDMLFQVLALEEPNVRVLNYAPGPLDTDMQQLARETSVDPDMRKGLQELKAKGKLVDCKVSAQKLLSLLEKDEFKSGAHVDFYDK

This is one part of the list.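 How the source made its calls: active = dose-dependent thermal stabilisation significant by F-test of dose-response against flat model at 10% FDR; inactive = not significant.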
These targets were tested with Nc1nc2c(ncn2[C@@H]2O[C@H](COP(=O)(O)OP(=O)(O)OP(=O)(O)O)[C@@H](O)[C@H]2O)c(=O)[nH]1 (assay: dose-dependent thermal stabilisation call (2D-TPP, DLPTP, 10% FDR) (binary (1 = stabilised)); higher = stabilised by the compound). Settings: system: Jurkat gel-filtered lysate; concentration range 1-500 µM.
SPAG9 (UniProt O60271) was tested, and the “dose-dependent thermal stabilisation call” value was inactive: 0.
STRBP (UniProt Q96SI9) was tested, and the “dose-dependent thermal stabilisation call” value was inactive: 0.
SORBS3 (UniProt O60504) was tested, and the “dose-dependent thermal stabilisation call” value was inactive: 0.
For SHTN1 (UniProt A0MZ66), the “dose-dependent thermal stabilisation call” value was inactive: 0.
SRSF9 (UniProt Q13242) was tested, and the “dose-dependent thermal stabilisation call” value was active: 1.
In the case of SORT1 (UniProt Q99523), the “dose-dependent thermal stabilisation call” value is reported as inactive: 0.
With SKAP1 (UniProt Q86WV1) the “dose-dependent thermal stabilisation call” value was inactive: 0.
For SPN (UniProt P16150), the “dose-dependent thermal stabilisation call” value was inactive: 0.
With SPR (UniProt P35270) the “dose-dependent thermal stabilisation call” value was inactive: 0.
